Values of other authors as cited in patent US6455541B1, “Suppression, by 5-lipoxygenase inhibitors, of bone resorption” (Board of Regents, The University of Texas System, priority 1994, dated 2002).
For at least one compound, name, drawing or mass did not settle the structure.

Test system: orthodontic tooth movement
Conditions: Mohammed et al., 1989; cited from earlier work

CC1=C(C)C(=O)C(CCCCC#CCCCC#CCO)=C(C)C1=O [AA 861]
inhibition of tooth movement: significant inhibition of tooth movement
